According to article PMC5351991:
These are yes or no findings as the source states them, for the method shown. Binding calls can cover weak binding; strength is not graded here. Tags and fused reporters may be left off the sequences shown.

Target: Cytoplasmic region of AtNIP1;1, yeast two-hybrid fusion (Arabidopsis thaliana)
Experiment: two-hybrid; yeast strain AH109; Gal4 activation domain and DNA-binding domain fusions; growth on SC -Leu-Trp-His or SC -Leu-Trp-His-Ade with 10 mM 3-amino-1,2,4-triazole and 40 uM X-alpha-gal, 30°C, serial dilutions

- binding: binds
B1: Calcium-dependent protein kinase CPK31, full-length, yeast two-hybrid fusion (enzyme, UniProt Q9S9V0 1-484)
chain: MGCYSSKNLKQSKRTILEKPFVDIGKVYILGDELGQGQFGITRKCVEKTSGKTYACKTILKTNLKSREDEEAVKREIRIMKHLSGEPNIVEFKKAYEDRDSVHIVMEYCGGGELFKKIEALSKDGKSYSEKEAVEIIRPIVNVVKNCHYMGVMLRDLKPENFLLSSTDKNATVKAIDFGCSVFIEEGEVHRKFAGSAYYIAPEVLQGKYGKEADIWSAGIILYILLCGKPPFVTEPEAQMFSEIKSAKIDVDSESWKFIDVKAKHLVNRMLNRNPKERISAAEVLGHPWMKDGEASDKPIDGVVLSRLKQFRDMNKLKKVALKVIAANLSEEEIKGLKTLFTNIDTDKSGTITLEELKTGLTRLGSNLSKTEVEQLMEAADVDGNGTIDIDEFISATMHRYRLDRDDHVYQAFQHFDKDNDGHITKEELEMAMKEHGVGDEVSIKQIITEVDTDNDGKINFEEFRTMMRSGSSLQPQRELLPIK
